From article PMC9735550
No constants are given. Whether binding was seen depends on the method and setting. Binding seen in cells or lysates may run through a third protein. Some entries that bind do so weakly or less than the wild type.

Sequences of proteins named here, by UniProt entry; tags and fusion partners are left off. A change or cut given only in a name is not applied to a line headed by its entry. A line that says so, or that is headed by a name, gives the form on record, which may keep a tag or linker.
UniProt P03187: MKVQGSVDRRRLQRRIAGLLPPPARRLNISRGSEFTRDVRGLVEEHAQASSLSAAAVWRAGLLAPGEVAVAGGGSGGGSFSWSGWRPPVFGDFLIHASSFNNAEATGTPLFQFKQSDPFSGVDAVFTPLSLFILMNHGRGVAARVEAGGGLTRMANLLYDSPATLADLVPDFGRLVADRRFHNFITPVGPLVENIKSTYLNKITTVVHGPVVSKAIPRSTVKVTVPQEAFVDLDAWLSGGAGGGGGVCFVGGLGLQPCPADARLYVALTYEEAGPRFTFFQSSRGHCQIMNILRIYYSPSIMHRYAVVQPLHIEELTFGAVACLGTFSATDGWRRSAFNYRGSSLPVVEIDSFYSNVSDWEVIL
UniProt Q9C035: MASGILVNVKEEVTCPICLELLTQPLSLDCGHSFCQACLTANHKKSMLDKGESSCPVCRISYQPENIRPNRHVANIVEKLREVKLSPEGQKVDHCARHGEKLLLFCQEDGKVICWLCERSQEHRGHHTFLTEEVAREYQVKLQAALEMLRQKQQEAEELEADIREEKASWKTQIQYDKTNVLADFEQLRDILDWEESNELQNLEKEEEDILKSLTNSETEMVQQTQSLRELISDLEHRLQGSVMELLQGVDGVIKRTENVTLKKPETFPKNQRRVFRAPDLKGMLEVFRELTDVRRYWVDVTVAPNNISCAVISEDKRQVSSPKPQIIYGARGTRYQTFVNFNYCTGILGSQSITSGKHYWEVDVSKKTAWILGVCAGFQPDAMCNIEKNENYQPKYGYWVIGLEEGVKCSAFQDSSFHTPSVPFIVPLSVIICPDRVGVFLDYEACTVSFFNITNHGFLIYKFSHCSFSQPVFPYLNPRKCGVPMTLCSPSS
GFP-TRIM5α-mSP1 (Q9C035, form named): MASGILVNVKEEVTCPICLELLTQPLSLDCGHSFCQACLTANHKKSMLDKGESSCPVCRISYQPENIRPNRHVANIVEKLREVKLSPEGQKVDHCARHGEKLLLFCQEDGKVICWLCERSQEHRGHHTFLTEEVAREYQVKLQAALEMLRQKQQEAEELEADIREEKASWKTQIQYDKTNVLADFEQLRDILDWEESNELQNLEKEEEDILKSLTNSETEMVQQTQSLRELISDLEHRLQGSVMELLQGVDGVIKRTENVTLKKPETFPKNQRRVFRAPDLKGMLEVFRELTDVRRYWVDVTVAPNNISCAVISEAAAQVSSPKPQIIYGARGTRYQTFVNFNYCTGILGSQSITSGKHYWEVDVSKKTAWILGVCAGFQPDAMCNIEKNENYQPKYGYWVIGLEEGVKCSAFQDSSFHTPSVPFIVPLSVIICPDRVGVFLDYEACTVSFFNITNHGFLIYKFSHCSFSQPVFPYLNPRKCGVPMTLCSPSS
GFP-TRIM5α-mSP2 (Q9C035, form named): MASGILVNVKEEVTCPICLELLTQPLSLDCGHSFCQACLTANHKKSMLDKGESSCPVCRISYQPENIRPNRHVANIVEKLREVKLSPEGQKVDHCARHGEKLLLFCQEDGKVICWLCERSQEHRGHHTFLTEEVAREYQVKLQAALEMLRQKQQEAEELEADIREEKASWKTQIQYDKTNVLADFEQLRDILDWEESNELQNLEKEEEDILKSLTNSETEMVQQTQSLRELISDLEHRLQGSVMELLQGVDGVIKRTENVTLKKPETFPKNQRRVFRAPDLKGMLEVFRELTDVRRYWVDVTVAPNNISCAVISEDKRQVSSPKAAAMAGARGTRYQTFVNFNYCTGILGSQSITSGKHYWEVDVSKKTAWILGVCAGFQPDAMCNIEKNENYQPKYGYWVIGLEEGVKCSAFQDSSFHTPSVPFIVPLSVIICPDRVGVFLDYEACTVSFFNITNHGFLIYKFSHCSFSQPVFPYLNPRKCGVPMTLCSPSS
UniProt Q14457: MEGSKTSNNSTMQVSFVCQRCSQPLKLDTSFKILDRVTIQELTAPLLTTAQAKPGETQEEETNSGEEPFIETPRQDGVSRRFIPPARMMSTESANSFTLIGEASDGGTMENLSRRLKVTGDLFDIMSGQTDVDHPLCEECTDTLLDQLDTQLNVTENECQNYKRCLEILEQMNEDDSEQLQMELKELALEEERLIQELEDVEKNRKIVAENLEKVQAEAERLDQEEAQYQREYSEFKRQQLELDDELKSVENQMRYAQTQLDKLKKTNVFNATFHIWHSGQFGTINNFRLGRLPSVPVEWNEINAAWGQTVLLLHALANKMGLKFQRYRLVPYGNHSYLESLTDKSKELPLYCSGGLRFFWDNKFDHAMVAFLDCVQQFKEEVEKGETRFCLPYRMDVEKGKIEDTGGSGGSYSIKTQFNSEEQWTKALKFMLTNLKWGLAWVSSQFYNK

Tests used:
[1] = target: Flag-BORF1 (Epstein-Barr virus) (UniProt P03187); assay: co-IP; HEK293T cells cotransfected, lysed 24 h later in mRIPA buffer (50 mM Tris-HCl pH 7.8, 150 mM NaCl, 5 mM EDTA, 0.5% Triton X-100, 0.5% IGEPAL); anti-Flag M2 beads, 4 °C, 1 h; immunoblot with anti-HA or anti-GFP
Flag-TRIM5α = Flag-TRIM5α (UniProt Q9C035); assay: as above
[2] = target: GST-BECN1 (human (cDNA from MCF7 cells)) (UniProt Q14457); assay: pull-down; GST or GST fusion from E. coli BL21(DE3) bound to Glutathione Sepharose 4B beads and washed; mixed with E. coli lysate holding the His-tagged protein, 4 °C, 1 h; washed with 0.3% IGEPAL in PBS three times; immunoblot with anti-His; only the target purified
GST-TRIM5α = GST-TRIM5α (UniProt Q9C035); assay: as above
[3] = target: GST-p62 (human (cDNA from MCF7 cells)) (UniProt Q13501); assay: as above

GFP-TRIM5α (from UniProt Q9C035 1-493)
binding [1]: binds

GFP-TRIM5α-mSP1 (from UniProt Q9C035 1-493)
binding [1]: binds

GFP-TRIM5α-mSP2 (from UniProt Q9C035 1-493)
binding [1]: binds

HA-BORF1 (from UniProt P03187 1-364)
binding (Flag-TRIM5α): binds

His-BORF1 (from UniProt P03187 1-364)
binding [2]: binds | binding (GST-TRIM5α): binds | binding [3]: binds
